The whole screen tested about 320,000 compounds, of which about 2,100 (0.66%) were called active. Inconclusive results, whose numbers are uncertain, are shown with a selection of clear calls. Calls come from the whole dose curve; as a rule, active = well fitted inhibition curve with a large enough effect in the signal ratio, with a control signal flat (not every such curve was filed as active); inconclusive = small, poorly fitted or top-dose-only effect, or effect the other way, or a change in a side signal; inactive = flat fitted curve, though single readings scatter; the % refers to the signal ratio. A potency beside an inconclusive call is a rough fit, not a confirmed value.
Test: qHTS Assay for Lipid Storage Modulators in Drosophila S3 Cells
Settings: BODIPY lipid droplet fluorescence, 18-24 h, cells fed with added oleic acid; lipid storage change, negative = inhibition: at 46.1 µM (top of the series) unless noted
How it was run: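 Laser-scanning cytometry quantifies lipid droplet accumulation (500–530 nm total intensity; droplet/cell object ratio) in oleic acid-fed (400 uM added) Drosophila S3 cells treated with a concentration series. 20 uM Triacsin C defined 100% inhibition.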
% is set by controls: 0 for no effect and ±100 for the full control effect; potency is the fitted concentration of half-maximal effect.

Row | Compound | Potency | lipid storage change, negative = inhibition
1 | COc1ccc(/C(=N/O)C(C)(C)NO)cc1 | inconclusive: 0.0052 µM [falling, full curve, poor fit] | –
2 | CC(C)Sc1ncc(S(=O)(=O)c2ccccc2)c(=O)[nH]1 | – | inconclusive: 19.1%
3 | COC(=O)c1ccccc1NC(=O)[C@@H]1CCC(=O)N1C1OC(=O)c2c1ccc(OC)c2OC (stereo partly drawn) | – | inconclusive: 4.11%
4 | Nc1ncc(Br)cc1N=Cc1ccccc1 | – | inconclusive: 17.4%
5 | COc1cc(/C=C2/C(=N)N3C(=NC2=O)SN=C3S(=O)(=O)C(C)C)ccc1OC(=O)c1ccco1 | – | inconclusive: 8.07%
6 | CCC(Oc1ccccc1)C(=O)Nc1ccc(S(=O)(=O)Nc2cnc3ccccc3n2)cc1 (stereo not drawn) | – | inconclusive: 10.9%
7 | Cc1cc(Cl)ccc1OCCCC(=O)NCc1ccncc1 | – | inconclusive: 30.5%
8 | Cc1cccc(C)c1OCC(O)CN1CCC(CN2C(=O)c3cccc4cccc(c34)C2=O)CC1 (stereo not drawn) | – | inconclusive: -149%
9 | CC(=O)Nc1ncnc2c1c(-c1ccc(Cl)cc1)nn2C(C)(C)C | – | inconclusive: -40.7% [at 0.369 µM]
10 | O=C(Nc1ccc2c(c1)CCC2)c1cc2ccccc2o1 | inconclusive: 5.8 µM [rising, partial curve] | –
11 | CC(=O)Nc1ccc(NC(=O)CSC2=NS(=O)(=O)c3cc(F)ccc3N2)cc1 | – | inconclusive
12 | CN1c2ccccc2C2(C)CCCC3=Cc4cccc([N+](=O)[O-])c4OC312 (stereo not drawn) | – | inconclusive: 22.2%
13 | CS(=O)(=O)Cc1cc(Sc2ccccc2)nc(-c2ccncc2)n1 | – | inconclusive: 11.2%
14 | Nc1ccc(Oc2ccc(Br)cc2)cc1 | – | inconclusive: 14.6%
15 | COc1ccc2cc(C(=O)N/N=C/c3sc4ccccc4c3O)ccc2c1 | inconclusive: 1.16 µM [activator, partial curve] | –
16 | Nc1[nH]c(=S)nc2nc(-c3ccccc3)c(-c3ccccc3)nc12 | inconclusive: 2.06 µM [falling, partial curve, poor fit] | –
17 | Clc1ccc(COn2nnc3ccccc32)c(Cl)c1 | – | inconclusive: 22.8%
18 | COC(=O)c1cc(=O)n(Cc2ccc(OC)c(OC)c2)c(=Nc2ccc(F)cc2)s1 | – | inconclusive: 7.4%
19 | CCOc1ccc(C(=O)NCC(=O)NCC(c2ccccc2OC)N2CCCC2)cc1 (stereo not drawn) | – | inconclusive: 9.71% [at 0.0737 µM]
20 | COC(C/C=C/[C@@H](O)COCc1ccccc1)OC | – | inconclusive: -5.54%
21 | Cc1cc(C)c(S(=O)(=O)c2cccc(Cl)c2)c(Cl)n1 | – | inconclusive: 9.18%
22 | COc1c(C)cc(C(=O)C2CCCN(S(=O)(=O)N(C)C)C2)cc1C (stereo not drawn) | – | inconclusive: 30%
23 | C=CCN1C(=O)C(Cc2cccc(Cl)c2)S/C1=N/N=C/c1ccco1 (stereo not drawn) | inconclusive: 5.17 µM [activator, partial curve] | –
24 | O=C(CC(=O)N/N=C\c1cccc(Cl)c1Cl)NCc1ccccc1 | – | inconclusive: 14%
25 | CCOc1ccc(-c2cccc(NC(=O)c3cccs3)c2)nn1 | inconclusive: 2.31 µM [rising, full curve, poor fit] | –

Row | Compound | Potency | lipid storage change, negative = inhibition
26 | O=C(Nc1ccccc1C(=O)N1CCOCC1)C1CCC(=O)N1C1CCCC1 (stereo not drawn) | – | inconclusive: -26.2%
27 | COc1ccc(-n2c(SC)nc(O)c(Cc3ccccc3)c2=O)cc1 | – | inconclusive: 172%
28 | Cc1ccc(C(=O)NCc2nnc(SCC(=O)Nc3ccccc3)n2C)cc1 | – | inconclusive: 25.9%
29 | Cc1cc(Cl)ccc1OCC(=O)Nc1cccnc1 | inconclusive: 0.231 µM [falling, full curve, poor fit] | –
30 | CCN(CC)c1ccc(/C=N/Nc2nc(C)cc(C)n2)cc1 | inconclusive: 0.116 µM [activator, full curve, poor fit] | –
31 | CCCN1CC=C2C(C#N)=C(N)C(C#N)(C#N)C(c3cc(OC)ccc3OC)C2C1 (stereo not drawn) | – | inconclusive: -86.7%
32 | CCOC(=O)c1nc2ccccc2c(=O)[nH]1 | – | inconclusive: -10.7%
33 | NC(=O)c1cccc(NC(=O)Nc2ccc(Cl)cc2)c1 | inconclusive: 29.1 µM [activator, single point] | –
34 | CCCCCC(=O)NC(=S)NNC(=O)CC | – | inconclusive: 111%
35 | COc1cccc(/C=C/C(=O)Nc2ccc3nc4n(c(=O)c3c2)CCCC4)c1OC | – | inconclusive: -19.9%
36 | Cc1c(-n2c(SCC(=O)O)nnc2-c2ccccc2Cl)c(=O)n(-c2ccccc2)n1C | inconclusive: 1.03 µM [falling, full curve] | –
37 | O=C(NCCc1c[nH]c2ccccc12)c1c(Cl)nc2sccn12 | – | inconclusive: 197%
38 | O=S(=O)(c1ccc(Cl)nc1)N(Cc1ccccc1)Cc1ccccc1 | inconclusive: 13 µM [activator, partial curve, poor fit] | –
39 | COC(=O)c1ccccc1S(=O)(=O)N1CCC(C(=O)NC2CCCCC2C)CC1 (stereo not drawn) | inconclusive: 0.92 µM [activator, full curve, poor fit] | –
40 | CC(C)NC(=O)N1CC(c2ccccc2)C(c2ccc(Cl)cc2)=N1 (stereo not drawn) | inconclusive: 29.1 µM [falling, single point] | –
41 | CCc1ccccc1NC(=O)/C(C#N)=C/c1ccc(Sc2ccccc2)o1 | inconclusive: 29.1 µM [falling, single point] | –
42 | O=C(c1cn(Cc2ccccc2)nc1-c1ccccc1)N1CCN(c2ccccn2)CC1 | – | inconclusive: 22.3%
43 | Cc1ccc(S(=O)(=O)N(C)c2ccc(OC(=O)c3cccs3)cc2)cc1C | – | inconclusive: -86%
44 | COc1ccc(Cl)cc1Nc1nnc(-c2ccncc2)s1 | – | inconclusive: 11.9%
45 | O=C(O)CC1(CC(=O)Nc2ccc3ccccc3c2)CCCCC1 | – | inconclusive: 0.255%
46 | O=C(c1ccccc1)N1CCN(C2CCCCCC2)CC1 | active: 25.9 µM | –
47 | CCc1noc(C)c1C(=O)N1CCCSC1=Nc1ccccc1Cl | – | inconclusive
48 | COc1ccc(N2CCN(C(=O)CNC(=O)c3nn(-c4ccc(OC)cc4)c(=O)c4ccccc34)CC2)cc1 | inconclusive: 25.9 µM [falling, single point] | –
49 | O=C(CN(Cc1ccc(F)cc1)C(=O)CNS(=O)(=O)c1ccccc1)NCc1ccco1 | inconclusive: 1.16 µM [falling, single point] | –
50 | CCC(C)(CCNC(=O)Cc1ccccc1)c1ccccc1OC (stereo not drawn) | – | inconclusive: -20.3%

Row | Compound | Potency | lipid storage change, negative = inhibition
51 | CCOc1ccc2nc(N(CCCN(C)C)C(=O)c3ccc(C(=O)c4ccccc4)cc3)sc2c1 | inconclusive: 1.84 µM [activator, partial curve, poor fit] | –
52 | CC(C)(C)n1cnc2cc(NC(=O)c3ccc(Cl)cc3)ccc21 | inconclusive: 4.61 µM [falling, full curve] | –
53 | COc1cccc([C@H](O)Cn2cc(-c3ccc(CON=C(C)C)cc3)nn2)c1 | – | inconclusive: -0.578%
54 | O=S(=O)(c1ccc(Br)cc1)N1CCN(c2cc(-c3ccccc3)nc3ncnn23)CC1 | – | inconclusive: 112%
55 | O=C(CN1C(=O)NC2(CCCC2)C1=O)Nc1ccc(F)c(Cl)c1 | inconclusive: 11.6 µM [falling, single point] | –
56 | COc1ccc(Cl)c2c1[nH]c1nc(SCc3cccnc3)nnc12 | – | inconclusive: 42.7%
57 | O=C(COC(=O)c1cccs1)NCc1ccco1 | – | inconclusive: -53.6%
58 | O=C(CCC1CCCCC1)Nc1c2c(nn1-c1ccc(F)cc1)CS(=O)(=O)C2 | – | inconclusive: -172%
59 | CCN(Cc1ccccc1)C(=O)C1CCN(c2ncnc3c2nc2n3CCCCC2)CC1 | inconclusive: 29.1 µM [falling, partial curve, poor fit] | –
60 | Cc1ccccc1CCNC(=O)Cn1ccc2cc(S(=O)(=O)N3CCCC3)ccc21 | – | inconclusive: -22%
61 | CC1CCN(c2nnc(NC(=O)Cn3c(=O)oc4ccccc43)s2)CC1 | – | inconclusive: 8.08%
62 | Fc1ccc(C2CC(c3cccs3)=NN2c2ccccc2)cc1 (stereo not drawn) | inconclusive: 9.2 µM [cytotoxic, partial curve] | –
63 | CCOc1ccccc1OCC(=O)Nc1cc(S(=O)(=O)N2CCCCC2)ccc1N1CCN(CC)CC1 | inconclusive: 4.11 µM [activator, partial curve] | –
64 | COc1ccc(/C=N/NC(=O)c2cc(C)oc2C)cc1OCc1ccccc1 | inconclusive: 29.1 µM [falling, partial curve, poor fit] | –
65 | COc1cccc(-n2cnnn2)c1 | – | inconclusive: -135%
66 | COc1ccccc1NC(=O)C(=O)N(c1cccnc1)C(C(=O)NC(C)(C)C)c1ccccc1 (stereo not drawn) | – | inconclusive: -23.5%
67 | Cc1ccc(CNC(=O)c2ccc(S(=O)(=O)N(C)C)cc2)n1C | inconclusive: 29.1 µM [activator, single point] | –
68 | Cc1ccc([C@@H]2CC=C(C(=O)O)[C@H](c3ccc(Cl)cc3)N2S(=O)(=O)c2ccc(C)cc2)cc1 | inconclusive: 29.1 µM [falling, single point] | –
69 | O=C(c1ccco1)N1CCN(Cc2nnnn2C2CCCCC2)CC1 | – | inconclusive: -17.1%
70 | COC(=O)C(Cc1ccccc1)NC(=O)c1ccc(NS(=O)(=O)c2ccc3[nH]c(=O)[nH]c3c2)cc1 (stereo not drawn) | – | inconclusive: 31.6%
71 | Cc1ccc(S(=O)(=O)N2CCC(C(N)=O)CC2)cc1[N+](=O)[O-] | inconclusive: 0.0651 µM [activator, partial curve, poor fit] | –
72 | NC(=O)CC(NC(=O)Cc1ccc(Br)cc1)c1ccc(NC2CCN(Cc3ccccc3)CC2)c([N+](=O)[O-])c1 (stereo not drawn) | inconclusive: 6.51 µM [falling, single point] | –
73 | CC(C)CN(C(=O)C1=NN(c2ccccc2)C(=O)CC1)c1c(N)n(Cc2ccccc2)c(=O)[nH]c1=O | – | inconclusive: 84.6%

In another format: entries from further up
Row	Compound	Potency	lipid storage change, negative = inhibition
53	COc1cccc([C@H](O)Cn2cc(-c3ccc(CON=C(C)C)cc3)nn2)c1	–	inconclusive: -0.578%
54	O=S(=O)(c1ccc(Br)cc1)N1CCN(c2cc(-c3ccccc3)nc3ncnn23)CC1	–	inconclusive: 112%
55	O=C(CN1C(=O)NC2(CCCC2)C1=O)Nc1ccc(F)c(Cl)c1	inconclusive: 11.6 µM [falling, single point]	–

Reference: PubChem BioAssay AID2685 (National Center for Advancing Translational Sciences (NCATS), 2010)
